Measured data: PubChem BioAssay AID652272 (Drosophila RNAi Screening Center, 2013)

- Aim: 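Finding fly genes that regulate Hedgehog signal transduction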 (primary screen)
- System: Drosophila clone 8 (Cl8) cells
- Reagents: long dsRNA against Drosophila genes
- Detection: 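Plate reader light from a firefly reporter under a ptc promoter fragment that responds to Hedgehog, with Renilla light as transfection reference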
- Scale: firefly Hh reporter signal: higher = more ptc reporter light; Renilla reference signal: higher = more Renilla control light
- Hit rule: 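Called a hit if the two-replicate mean z-score lies below -2 or above +3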
- Meaning of the calls: active = hit: reporter lowered or raised; inactive = not a hit
The deposit covers about 21,000 reagents; this is an unselected part of those with a known target gene and a result. Of all reagents, 503 (2.4%) were called active. 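Raw plate light values, not normalised; calls rest on replicate z-scores that were not deposited; hits include reporter decreases as well as increases.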 A number with no mark means an inactive call. Not given: the amount of reagent, the time to read-out.

Gene,amplicon,"firefly Hh reporter signal, replicate 1","firefly Hh reporter signal, replicate 2","firefly Hh reporter signal, replicate 3","Renilla reference signal, replicate 1","Renilla reference signal, replicate 2"
Atet,DRSC00263,65866,55351,,1104,5277
Eip63F-1,DRSC08072,1.17e5,2.72e5,,9499,10695
Eip63F-1,DRSC08659,1.29e5,87069,,3240,5632
spir,DRSC03619,87112,57242,,2189,5941
Ctl2,DRSC14423,87957,81301,,2201,2204
CG5323,DRSC06929,1.34e5,64945,,3596,5392
Dark,DRSC05922,1.79e5,87739,,7282,3203

Continued, starting with the last 2 of the part before.
Gene,amplicon,"firefly Hh reporter signal, replicate 1","firefly Hh reporter signal, replicate 2","firefly Hh reporter signal, replicate 3","Renilla reference signal, replicate 1","Renilla reference signal, replicate 2"
CG5323,DRSC06929,1.34e5,64945,,3596,5392
Dark,DRSC05922,1.79e5,87739,,7282,3203
CG8170,DRSC07087,63798,48412,,1707,4374
axo,DRSC08116,6.12e5,1.43e5,,5845,5845
axo,DRSC08324,55862,35713,,5097,2712
axo,DRSC08326,18364,15761,,2128,1178
CG9328,DRSC03203,93019,74048,,2887,3175
CG30411,DRSC04004,1.48e5,2.08e5,,3308,9476
CG7556,DRSC20052,1.25e5,1.00e5,,3081,1915
CG2247,DRSC19844,1.36e5,73056,,3095,2020
CG14107,DRSC10110,32545,27353,21922,3913,2393
mus302,DRSC09905,1.43e5,,,3169,3712
CG11598,DRSC14331,1.14e5,1.44e5,,1456,4213
CG11693,DRSC14353,74053,85780,,1312,2470
ed,DRSC00350,69809,86555,,2821,3563
ed,DRSC00438,1.04e5,61609,,3306,5333
ed,DRSC00439,1.50e5,71508,,4273,6784
ed,DRSC00478,1.49e5,64962,,3978,6186
